The supplement of paper PMC11732987, “Enantioselective OTUD7B fragment discovery through chemoproteomics screening and high-throughput optimisation” (Communications Chemistry, 2025)
Some of the results follow. The data scatter; read single values as rough.

Amino acid sequences for entries named in this document (tags omitted). A change or cut given only in a name is not applied to a line headed by its entry. Residues count along the entry.
UniProt Q96HW7, 102-122: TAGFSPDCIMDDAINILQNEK
UniProt Q9UG01, whole entry, looked up: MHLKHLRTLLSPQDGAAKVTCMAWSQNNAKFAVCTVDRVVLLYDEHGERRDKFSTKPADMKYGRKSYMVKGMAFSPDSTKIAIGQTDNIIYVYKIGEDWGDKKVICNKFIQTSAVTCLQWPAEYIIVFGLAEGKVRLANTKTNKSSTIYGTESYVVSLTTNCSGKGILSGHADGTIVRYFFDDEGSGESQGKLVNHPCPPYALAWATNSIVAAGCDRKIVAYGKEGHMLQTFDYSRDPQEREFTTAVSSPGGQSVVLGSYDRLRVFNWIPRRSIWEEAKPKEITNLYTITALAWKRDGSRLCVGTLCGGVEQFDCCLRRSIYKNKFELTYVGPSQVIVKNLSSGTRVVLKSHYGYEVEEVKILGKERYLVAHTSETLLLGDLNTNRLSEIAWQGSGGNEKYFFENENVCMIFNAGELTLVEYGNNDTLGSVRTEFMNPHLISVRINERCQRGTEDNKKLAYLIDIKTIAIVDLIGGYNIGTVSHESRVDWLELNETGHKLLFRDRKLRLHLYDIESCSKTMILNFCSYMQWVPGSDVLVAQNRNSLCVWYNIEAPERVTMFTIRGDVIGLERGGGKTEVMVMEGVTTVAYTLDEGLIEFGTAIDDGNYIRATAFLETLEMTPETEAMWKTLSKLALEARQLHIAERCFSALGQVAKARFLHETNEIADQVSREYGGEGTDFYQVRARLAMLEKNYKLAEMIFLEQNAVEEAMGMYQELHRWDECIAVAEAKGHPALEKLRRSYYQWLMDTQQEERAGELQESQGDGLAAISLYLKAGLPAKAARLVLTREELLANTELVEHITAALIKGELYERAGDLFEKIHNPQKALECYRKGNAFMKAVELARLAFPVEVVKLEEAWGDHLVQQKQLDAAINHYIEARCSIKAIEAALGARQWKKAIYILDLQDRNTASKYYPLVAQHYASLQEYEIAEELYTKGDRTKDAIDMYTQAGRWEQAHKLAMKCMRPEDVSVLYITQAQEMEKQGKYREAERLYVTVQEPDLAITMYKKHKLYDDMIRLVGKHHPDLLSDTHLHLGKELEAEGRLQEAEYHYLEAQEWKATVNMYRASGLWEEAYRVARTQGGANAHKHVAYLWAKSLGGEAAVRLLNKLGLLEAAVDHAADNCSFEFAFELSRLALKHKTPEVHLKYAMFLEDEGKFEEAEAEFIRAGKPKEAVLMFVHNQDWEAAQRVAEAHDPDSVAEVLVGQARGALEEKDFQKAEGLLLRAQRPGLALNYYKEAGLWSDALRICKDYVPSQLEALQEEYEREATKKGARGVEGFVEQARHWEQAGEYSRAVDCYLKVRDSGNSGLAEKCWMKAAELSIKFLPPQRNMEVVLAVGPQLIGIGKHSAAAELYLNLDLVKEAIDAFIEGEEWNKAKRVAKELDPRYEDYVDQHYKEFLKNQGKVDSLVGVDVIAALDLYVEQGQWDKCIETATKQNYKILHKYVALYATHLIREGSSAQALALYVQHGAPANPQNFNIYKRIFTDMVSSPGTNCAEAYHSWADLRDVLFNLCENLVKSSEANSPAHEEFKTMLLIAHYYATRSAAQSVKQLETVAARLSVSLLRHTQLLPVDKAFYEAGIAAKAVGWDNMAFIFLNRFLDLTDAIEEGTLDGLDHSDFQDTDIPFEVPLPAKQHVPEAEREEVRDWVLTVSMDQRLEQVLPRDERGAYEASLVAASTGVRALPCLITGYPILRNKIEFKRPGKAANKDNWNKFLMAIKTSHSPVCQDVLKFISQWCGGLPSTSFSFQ
UniProt P48735: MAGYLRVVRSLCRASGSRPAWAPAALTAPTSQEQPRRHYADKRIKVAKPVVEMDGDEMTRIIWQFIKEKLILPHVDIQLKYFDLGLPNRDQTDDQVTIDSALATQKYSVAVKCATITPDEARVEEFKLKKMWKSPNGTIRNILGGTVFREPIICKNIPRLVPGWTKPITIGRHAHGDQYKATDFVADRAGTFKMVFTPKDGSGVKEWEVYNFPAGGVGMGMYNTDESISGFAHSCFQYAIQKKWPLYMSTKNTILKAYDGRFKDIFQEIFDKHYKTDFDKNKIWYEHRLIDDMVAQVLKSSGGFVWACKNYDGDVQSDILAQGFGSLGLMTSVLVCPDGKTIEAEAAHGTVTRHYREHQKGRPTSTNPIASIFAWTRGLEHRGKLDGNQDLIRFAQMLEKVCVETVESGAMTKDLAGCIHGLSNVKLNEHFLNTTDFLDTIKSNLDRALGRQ
UniProt Q9UL03, 238-266: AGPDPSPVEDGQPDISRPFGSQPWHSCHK

How the values were obtained:
[1] = compound: ClCC(=O)N[C@@H]1CCCc2ccccc12; assay: log2 mean competition ratio of IA-DTB cysteine labelling (DMSO/compound) (log2 ratio); higher = stronger cysteine engagement by compound; details: treatment time: 4 h, cell line lysate: HEK293T
Experimental: (§1)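 IA-DTB competitive cysteine chemoproteomics in HEK293T RIPA lysate. Lysates were treated with compound 29 or 30 at 50 or 200 µM for 4 h, then IA-DTB (500 µM, 1 h), trypsin-digested, NeutrAvidin-enriched and analysed by diaPASEF. Competition ratio = intensity DMSO / intensity compound (n=4 treated, n=64 DMSO); binding: mean log2 CR ≥ 1 and p ≤ 0.05 plus QC filters. Target is the cysteine site.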

[2] = compound: ClCC(=O)N[C@H]1CCCc2ccccc12; assay: as above; details: treatment time: 4 h, cell line lysate: HEK293T
Experimental: as §1

INTS4 C109 (UniProt Q96HW7)
log2 mean competition ratio ([1]; 50 µM): -0.148 | log2 mean competition ratio ([1]; 200 µM): 0.282 | log2 mean competition ratio ([2]; 50 µM): 0.319 | log2 mean competition ratio ([2]; 200 µM): 0.375

HUWE1 C3213
log2 mean competition ratio ([1]; 50 µM): 0.896 | log2 mean competition ratio ([1]; 200 µM): -0.0997 | log2 mean competition ratio ([2]; 50 µM): 0.623 | log2 mean competition ratio ([2]; 200 µM): -0.212

IFT172 C724 (UniProt Q9UG01)
log2 mean competition ratio ([1]; 50 µM): 0.215 | log2 mean competition ratio ([1]; 200 µM): 0.14 | log2 mean competition ratio ([2]; 50 µM): -0.385 | log2 mean competition ratio ([2]; 200 µM): -0.038

IDH2 C113 (UniProt P48735)
log2 mean competition ratio ([1]; 50 µM): -0.11 | log2 mean competition ratio ([1]; 200 µM): -0.139 | log2 mean competition ratio ([2]; 50 µM): -0.195 | log2 mean competition ratio ([2]; 200 µM): -0.165

INTS6 C264 (UniProt Q9UL03)
log2 mean competition ratio ([1]; 50 µM): 0.286 | log2 mean competition ratio ([1]; 200 µM): 0.325 | log2 mean competition ratio ([2]; 50 µM): 1.19 | log2 mean competition ratio ([2]; 200 µM): 0.141
